About 610 (0.16%) of roughly 390,000 compounds were called active. Calls follow the shape of the dose curve; as a rule, active = well fitted inhibition curve with a large enough effect; inconclusive = small, poorly fitted or top-dose-only effect, or effect the other way, or another doubt; inactive = no such curve, though single readings can be large or run the other way. Inconclusive means that the source gave no clear call. Potencies beside an inconclusive call are fits to weak or partial responses and may not hold up.
Test: Nrf2 qHTS screen for inhibitors: counterscreen for cytotoxicity
Settings: A549 ARE-Fluc cells, CellTiter-Fluor viability, 18-24 h; series mostly up to 46 µM
Source text: NIH Molecular Libraries Probe Production Network [MLPCN]
NIH Chemical Genomics Center [NCGC]
Assay Provider: Shyam Biswal, Johns Hopkins University
Nrf2 is a transcription factor that maintains cellular redox homoestasis and protects cells from xenobiotics. Nrf2 binds to the antioxidant response element (ARE) to induce gene expression of a broad spectrum of genes that encode for antioxidants. […] Finding a small molecule that act as an inhibitor of Nrf2 function would represent a novel therapeutic target that could lead to improvement in survival of patients undergoing chemo- and/or radio- therapy.
So here we implemented a counterscreen to weed out the cytotoxic compounds.
1. […]
A concentration-response assay was performed with A549 ARE_Fluc cells which are suspended in 5% FBS OPTI-MEM. […] The plate is then incubated at 37deg C at 5% CO2 for 30 minutes before they are read on the ViewLux (Perkin Elmer) for a fluorescent read Ex=405(10)/Em=525(10) for a 3 second exposure, 2x binning, and high gain. […] Afterwards another ViewLux read is performed using the clear filter to get a luminescent read with the settings of 40 second exposure, 2x binning, and high gain. Cytotoxicity is assessed through the first fluorescent read and then biochemical activity against Nrf2 is measured in the luminescent read.
Potency is read from the fitted curve at half-maximal effect.

| Compound | Potency |
| --- | --- |
| Cc1cc(C)cc(-n2cccc2/C=C2/C(=N)N3C(=NC2=O)SN=C3S(C)(=O)=O)c1 | inconclusive: 20.6 µM [falling, partial curve, poor fit] |
| CCOC(=O)c1sc(N2C(=O)C(O)=C(C(=O)c3ccc(C)o3)C2c2cccc([N+](=O)[O-])c2)nc1C (configuration not stated) | inconclusive: 29.1 µM [falling, single point] |
